# “And” between values parts separate entries of the source, which are not always exact repeats. Equal entries are not always repeated. Hit rate of the full screen: of about 2,000 compounds, about 45 (2%) were called active.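 Rule for the calls: active = inhibition above the screen-wide mean inhibition plus 3 SD (cut at about 44% in these data); inactive = the rest.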 This is one part of the list.
# The chains behind the UniProt entries cited, without tags or fusion partners. Where a name states a change or a piece, a line headed by the entry shows the natural chain unless it says otherwise.
# UniProt O60240: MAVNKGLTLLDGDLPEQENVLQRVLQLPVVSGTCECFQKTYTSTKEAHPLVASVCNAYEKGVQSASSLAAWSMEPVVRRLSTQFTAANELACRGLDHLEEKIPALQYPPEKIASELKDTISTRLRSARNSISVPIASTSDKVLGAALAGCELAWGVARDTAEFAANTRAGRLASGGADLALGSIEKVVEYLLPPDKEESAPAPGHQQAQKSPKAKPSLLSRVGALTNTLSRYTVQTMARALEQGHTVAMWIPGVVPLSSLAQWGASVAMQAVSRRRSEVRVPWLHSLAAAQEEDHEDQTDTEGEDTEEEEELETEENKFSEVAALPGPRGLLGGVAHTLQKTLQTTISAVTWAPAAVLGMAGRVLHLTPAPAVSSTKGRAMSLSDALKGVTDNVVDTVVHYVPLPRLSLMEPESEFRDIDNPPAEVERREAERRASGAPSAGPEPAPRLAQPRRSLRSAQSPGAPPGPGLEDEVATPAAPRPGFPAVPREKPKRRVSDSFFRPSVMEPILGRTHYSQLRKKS
# UniProt Q8WTS1: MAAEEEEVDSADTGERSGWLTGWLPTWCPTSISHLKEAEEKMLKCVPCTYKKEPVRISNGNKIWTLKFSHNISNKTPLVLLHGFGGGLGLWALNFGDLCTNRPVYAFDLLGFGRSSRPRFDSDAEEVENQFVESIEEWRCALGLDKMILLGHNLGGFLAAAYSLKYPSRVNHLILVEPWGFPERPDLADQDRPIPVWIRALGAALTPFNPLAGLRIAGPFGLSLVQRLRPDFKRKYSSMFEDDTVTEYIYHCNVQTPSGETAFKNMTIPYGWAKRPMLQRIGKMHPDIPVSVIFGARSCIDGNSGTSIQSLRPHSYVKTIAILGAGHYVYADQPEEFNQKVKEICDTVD
# Target: Perilipin-1 (Homo sapiens) + 1-acylglycerol-3-phosphate O-acyltransferase ABHD5 (Homo sapiens) (UniProt O60240+Q8WTS1)
# Assay: ABHD5-PLIN1 interaction inhibitors, pilot screen, cell lysate, split luciferase complementation, luminescence, NIH validation set (AID 493027);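 note: 0% = DMSO wells with the 100% control not disclosed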
# Settings: split G. princeps luciferase complementation, 4 h, at 7.9 µM, stronger effect = higher value
row,SMILES,inhibition
1,COc1ccc(CN2CC3CC(C2)c2cccc(=O)n2C3)cc1OC (stereo not given),inactive: -7.42%
2,COc1cccc(Oc2c(C)oc3cc(OC(=O)N(C)C)ccc3c2=O)c1,inactive: 2.5%
3,COc1ccc(NC2=NCC(C)S2)cc1 (stereo not given),inactive: -2.71%
4,c1ccc2c3c([nH]c2c1)CNCC3,inactive: -3.37%
5,Cn1c(O)c(C=NCCc2c[nH]c3ccccc23)c(=O)n(C)c1=O,inactive: 3.68%
6,CN(C)[C@@H]1C(=O)C(C(N)=O)=C(O)[C@@]2(O)C(=O)C3=C(O)c4c(O)cccc4[C@@](C)(O)[C@H]3[C@H](O)[C@@H]12,inactive: 12.9%
7,CCOc1ccc(N2C(=O)NC(=O)/C(=C\c3cc(OC)c(OC)cc3[N+](=O)[O-])C2=O)cc1,active: 63.9%
8,CC(C)CCC1(CN2CCCC2=O)C(=O)NC(=O)NC1=O,inactive: 2.92%
9,CC(=O)[C@H]1CC[C@H]2[C@@H]3CC[C@H]4C[C@H](O)CC[C@]4(C)[C@H]3C(=O)C[C@]12C,inactive: -9%
10,CCN(CC)CCOC(=O)C(O)(c1ccccc1)c1ccccc1,inactive: -3.64%
11,Cc1ccc2c(c1)C1CN(C)CCC1N2C(=O)Nc1cccc(Cl)c1 (stereo not given),inactive: 2.94%
12,C[C@]12CC[C@@H]3c4ccc(O)c(O)c4CC[C@H]3[C@@H]1CC[C@@H]2O,inactive: 24.6%
13,O=C1C=Cc2ccccc2C1=O,inactive: 25.2%
14,C[C@]12CCC(=O)C(O)=C1CC[C@@H]1[C@@H]2CC[C@]2(C)C(=O)CC[C@@H]12,inactive: -6.8%
15,CCCC(=O)OCC[N+](C)(C)C,inactive: -8.5%
16,CC(=O)c1ccc(-c2ccccc2)cc1,inactive: 1.86%
17,O=Cc1cn(Cc2ccc(F)cc2)c2ccccc12,inactive: -2.59%
18,CC(C)C(=O)Nc1ccc(S(=O)(=O)N2CC3CC(C2)c2cccc(=O)n2C3)cc1 (stereo not given),inactive: -8.76%
19,c1ccc2c(c1)[nH]c1cnccc12,inactive: -6.89%
20,COc1ccccc1CN1CCCCC1c1cccnc1 (stereo not given),inactive: -6.44%
21,CC12CN3CC(C)(CN(C1)C3c1cccs1)C2=O (stereo not given),inactive: -10.9%
22,Nc1ccc([As](=O)(O)O)cc1,inactive: 2.9%

# Part of the list above in order of SMILES length, rising.
row,SMILES,inhibition
4,c1ccc2c3c([nH]c2c1)CNCC3,inactive: -3.37%
10,CCN(CC)CCOC(=O)C(O)(c1ccccc1)c1ccccc1,inactive: -3.64%
11,Cc1ccc2c(c1)C1CN(C)CCC1N2C(=O)Nc1cccc(Cl)c1 (stereo not given),inactive: 2.94%

# Next structures

row,SMILES,inhibition
1,CC(=O)Nc1cc([As](=O)(O)O)ccc1O,inactive: -10.2%
2,Cc1cc2c(C(C)C)c(O)c(O)c(C=O)c2c(O)c1-c1c(C)cc2c(C(C)C)c(O)c(O)c(C=O)c2c1O,active: 50.9%
3,Cc1cc(Cl)ccc1OC(C)C(=O)O (stereo not given),inactive: -11.1%
4,O=c1[nH]c2ccccc2n1C1CCN(CCCC(c2ccc(F)cc2)c2ccc(F)cc2)CC1,inactive: -6.24%
5,CC12CN3CC(C)(CN(C1)C3c1cccnc1)C2=O (stereo not given),inactive: -4.1%
6,C[C@]12CCC(=O)C=C1CCC1C2CC[C@@]2(C)C1CC[C@@]2(O)CC#N (stereo not given in full),inactive: -1.29%
7,CN[C@H](C)[C@H](O)c1ccccc1,inactive: -1.69%
8,CCC1(c2ccccc2)C(=O)N(COC)C(=O)N(COC)C1=O,inactive: 3.14%
9,O=c1cccc2n1C[C@H]1C[C@@H]2CN2CCCC[C@@H]12,inactive: -2.79%
10,O=C1CC[C@@]2(O)[C@H]3Cc4ccc(O)c5c4[C@@]2(CCN3CC2CC2)[C@H]1O5,inactive: 1.93%
11,CN1C(=O)CN=C(c2ccc(Cl)cc2)c2cc(Cl)ccc21,inactive: -6.72%
12,NCC1(c2ccc3c(c2)OCCO3)CCCC1,inactive: -8.44%
13,c1ccc2c(c1)Nc1ccccc1S2,inactive: -8.34%
14,CC(C)(C)C(O)C(Oc1ccc(Cl)cc1)n1cncn1 (stereo not given),inactive: -13.8%
15,O=c1c2ccccc2[se]n1-c1ccccc1,active: 90.3%
16,C[N+]1(C)C2CCC1CC(OC(=O)C(CO)c1ccccc1)C2 (stereo not given),inactive: -8.6%
17,C[C@H]1CC[C@@]2(C)[C@@H](CC[C@@H]3[C@@H]2CC[C@]2(C)[C@@H](O)CC[C@@H]32)C1,inactive: 0.49%
18,NCC(O)c1ccc(O)cc1 (stereo not given),inactive: -12.3%
19,C[N+]1(C)[C@@H]2CC(OC(=O)[C@H](CO)c3ccccc3)C[C@H]1[C@@H]1O[C@@H]12 (stereo not given in full),inactive: -5.12% and inactive: 3.91%
20,S=C1NCCN1,inactive: -7.44%
21,c1ccc(Cn2ccnc2)cc1,inactive: -3.99%
22,CC(C)C[C@H]1C(=O)N2CCCC2[C@]2(O)O[C@](NC(=O)[C@@H]3C=C4c5cccc6[nH]cc(c56)CC4N(C)C3)(C(C)C)C(=O)N12 (stereo not given in full),inactive: 22.5%

# Four compounds drawn at random from those above:
row,SMILES,inhibition
15,O=c1c2ccccc2[se]n1-c1ccccc1,active: 90.3%
11,CN1C(=O)CN=C(c2ccc(Cl)cc2)c2cc(Cl)ccc21,inactive: -6.72%
12,NCC1(c2ccc3c(c2)OCCO3)CCCC1,inactive: -8.44%
21,c1ccc(Cn2ccnc2)cc1,inactive: -3.99%

# Carrying on:

row,SMILES,inhibition
1,CC(C)[C@H]1C(=O)N2CCC[C@H]2[C@]2(O)O[C@](NC(=O)[C@@H]3C=C4c5cccc6[nH]cc(c56)C[C@H]4N(C)C3)(C(C)C)C(=O)N12,inactive: 13.9%
2,C[C@H]1CCCC(=O)CCCCCc2cc(O)cc(O)c2C(=O)O1,inactive: 9.92%
3,Clc1ccc(COC(Cn2ccnc2)c2ccc(Cl)cc2Cl)cc1 (stereo not given),inactive: -0.42%
4,CN1C[C@H](CNC(=O)OCc2ccccc2)C[C@@H]2c3cccc4c3c(cn4C)C[C@H]21,inactive: -1.72%
5,O=C1NCCN2CCCC12 (stereo not given),inactive: -3.07%
6,OCc1cnc[nH]1,inactive: -15.7%
7,CCN(CC)C(=O)N[C@H]1C[C@@H]2c3cccc4[nH]cc(c34)C[C@H]2N(C)C1,inactive: 3.53%
8,CC12CN3CC(c4ccccc4)(CN(C1)C31CCCCC1)C2=O,inactive: -0.95%
9,CC[C@@H](CO)NC(=O)[C@@H]1C=C2c3cccc4c3c(cn4C)C[C@H]2N(C)C1,inactive: -5.9%
10,c1ccc2c(c1)OCC(C1=NCCN1)O2 (stereo not given),inactive: -1.86%
11,CC[N+]1(C)CCCC(OC(=O)C(O)(c2ccccc2)c2ccccc2)C1 (stereo not given),inactive: -9.01%
12,CCn1c(O)c(C(=O)CC2NCCc3ccccc32)c(=O)n(CC)c1=S (stereo not given),inactive: -1.08%
13,C[N+]1(C)CCc2cc3c(cc2[C@H]1[C@@H]1OC(=O)c2c1ccc1c2OCO1)OCO3,inactive: -4.9% and inactive: -13.2%
14,O=c1c2ccccc2nc(/C=C/c2ccc3c(c2)OCO3)n1-c1ccccc1,inactive: 1.81%
15,C=C1CC[C@@]2(O)[C@H]3Cc4ccc(O)c5c4[C@@]2(CCN3CC2CC2)[C@H]1O5,inactive: -0.92%
16,O=C(CCCN1CCC2(CC1)C(=O)NCN2c1ccccc1)c1ccc(F)cc1,inactive: 4.67%
17,NCCc1c[nH]c2ccc(F)cc12,inactive: -11.1%
18,C=CC1CN2CCC1CC2[C@@H](OC(=O)c1ccc(OC)cc1)c1ccnc2ccccc12 (stereo not given in full),inactive: 1.67%
19,Cc1ccc(/C=C2/C(=O)NC(=O)N(C)C2=O)cc1,inactive: -3.1%
20,c1cnc2c(c1)ccc1ncccc12,inactive: -6.23%
21,CCOC(=O)c1cncn1C(C)c1ccccc1 (stereo not given),inactive: 1.91%

# Reference: PubChem BioAssay AID493027 (The Scripps Research Institute Molecular Screening Center, 2011)
